Where two headings read alike, the source gives them in different places. These are yes or no findings as the source states them, for the method shown. Binding seen in cells or lysates may run through a third protein. A yes stands for co-enrichment or nearness to the bait. Other partners may have been found. No binding means not detected with the bait. Where a sequence is shown, tags or fusion partners need not be part of it.
T1: ALKBH1-Flag (UniProt Q13686)
T1 sequence: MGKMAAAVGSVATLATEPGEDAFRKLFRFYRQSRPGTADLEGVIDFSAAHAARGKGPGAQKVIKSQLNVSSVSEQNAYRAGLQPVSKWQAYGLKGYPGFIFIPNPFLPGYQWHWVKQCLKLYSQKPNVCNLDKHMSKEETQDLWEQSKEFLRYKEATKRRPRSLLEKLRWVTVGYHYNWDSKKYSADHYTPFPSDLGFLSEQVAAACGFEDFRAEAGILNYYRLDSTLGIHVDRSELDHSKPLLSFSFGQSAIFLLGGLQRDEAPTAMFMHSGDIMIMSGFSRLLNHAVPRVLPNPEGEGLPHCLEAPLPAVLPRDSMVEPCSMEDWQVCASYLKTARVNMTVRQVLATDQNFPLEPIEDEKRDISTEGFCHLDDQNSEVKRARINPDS

Amino acid sequences for entries named in this document (tags omitted).
UniProt P11586: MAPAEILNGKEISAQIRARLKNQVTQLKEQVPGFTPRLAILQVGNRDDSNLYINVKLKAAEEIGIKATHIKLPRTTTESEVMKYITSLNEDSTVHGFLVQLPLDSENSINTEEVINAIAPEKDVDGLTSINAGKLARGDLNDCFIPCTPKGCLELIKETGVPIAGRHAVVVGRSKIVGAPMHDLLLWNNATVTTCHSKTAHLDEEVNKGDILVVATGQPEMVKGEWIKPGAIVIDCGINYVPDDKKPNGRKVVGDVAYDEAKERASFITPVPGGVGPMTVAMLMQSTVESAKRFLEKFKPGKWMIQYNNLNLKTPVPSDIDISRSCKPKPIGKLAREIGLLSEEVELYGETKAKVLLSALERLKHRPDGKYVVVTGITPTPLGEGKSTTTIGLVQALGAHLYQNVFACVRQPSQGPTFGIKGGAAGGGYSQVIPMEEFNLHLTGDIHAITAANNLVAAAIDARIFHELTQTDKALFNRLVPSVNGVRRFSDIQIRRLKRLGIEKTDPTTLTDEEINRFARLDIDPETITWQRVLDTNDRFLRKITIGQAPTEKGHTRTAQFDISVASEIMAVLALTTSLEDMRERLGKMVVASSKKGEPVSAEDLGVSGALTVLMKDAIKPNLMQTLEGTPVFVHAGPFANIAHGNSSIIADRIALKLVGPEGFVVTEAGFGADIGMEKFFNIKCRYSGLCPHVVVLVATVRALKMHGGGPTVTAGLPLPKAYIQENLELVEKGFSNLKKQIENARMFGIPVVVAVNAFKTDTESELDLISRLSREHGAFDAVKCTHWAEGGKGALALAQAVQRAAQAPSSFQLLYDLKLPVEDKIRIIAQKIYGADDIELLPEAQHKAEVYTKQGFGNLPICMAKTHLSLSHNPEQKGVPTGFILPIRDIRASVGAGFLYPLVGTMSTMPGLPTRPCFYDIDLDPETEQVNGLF
UniProt Q9BYJ9: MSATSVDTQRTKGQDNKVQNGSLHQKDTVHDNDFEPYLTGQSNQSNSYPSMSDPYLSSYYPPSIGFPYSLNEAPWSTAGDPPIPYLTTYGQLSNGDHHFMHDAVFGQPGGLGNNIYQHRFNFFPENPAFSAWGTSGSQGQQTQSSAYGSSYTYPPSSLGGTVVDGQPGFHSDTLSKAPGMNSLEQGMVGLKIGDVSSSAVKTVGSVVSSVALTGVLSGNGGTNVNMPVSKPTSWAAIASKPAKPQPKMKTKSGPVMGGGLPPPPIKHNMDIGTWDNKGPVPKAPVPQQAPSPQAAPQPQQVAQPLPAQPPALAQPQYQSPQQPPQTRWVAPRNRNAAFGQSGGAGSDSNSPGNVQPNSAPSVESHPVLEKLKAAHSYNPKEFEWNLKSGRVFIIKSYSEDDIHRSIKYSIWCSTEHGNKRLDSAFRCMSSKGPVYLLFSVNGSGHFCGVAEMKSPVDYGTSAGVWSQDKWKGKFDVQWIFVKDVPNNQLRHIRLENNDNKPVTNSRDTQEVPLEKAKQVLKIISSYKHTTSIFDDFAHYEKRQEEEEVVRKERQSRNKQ
UniProt Q7Z739: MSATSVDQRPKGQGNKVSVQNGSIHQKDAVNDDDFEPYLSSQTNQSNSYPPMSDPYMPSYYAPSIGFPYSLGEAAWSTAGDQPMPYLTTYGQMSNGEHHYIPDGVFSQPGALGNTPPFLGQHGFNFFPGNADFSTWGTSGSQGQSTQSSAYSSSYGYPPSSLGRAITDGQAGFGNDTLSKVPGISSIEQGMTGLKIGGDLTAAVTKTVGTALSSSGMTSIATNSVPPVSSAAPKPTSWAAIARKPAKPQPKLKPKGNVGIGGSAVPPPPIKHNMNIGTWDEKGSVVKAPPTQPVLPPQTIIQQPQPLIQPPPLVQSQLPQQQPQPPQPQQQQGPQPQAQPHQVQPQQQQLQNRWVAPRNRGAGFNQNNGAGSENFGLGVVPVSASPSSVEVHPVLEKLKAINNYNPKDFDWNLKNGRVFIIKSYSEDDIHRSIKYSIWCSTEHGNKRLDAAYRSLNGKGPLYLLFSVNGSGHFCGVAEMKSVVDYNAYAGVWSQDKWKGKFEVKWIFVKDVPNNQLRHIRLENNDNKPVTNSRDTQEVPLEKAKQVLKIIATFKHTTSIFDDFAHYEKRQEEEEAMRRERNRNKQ


What was measured:
ALKBH1-Flag [1] = biological target: T1, ALKBH1-Flag; assay: affinity purification with mass spectrometry; ALKBH1-FLAG complexes coimmunoprecipitated with an anti-FLAG antibody from human cells, SDS-PAGE, silver stain, differential gel bands identified by mass spectrometry
ALKBH1-Flag [2] = biological target: T1, ALKBH1-Flag; assay: as above; remark: listed apart in the source

Molecule | binding (ALKBH1-Flag [1]) | binding (ALKBH1-Flag [2])
MTHFD1 (from UniProt P11586 1-935) | binds | 
YTHDF1 (from UniProt Q9BYJ9 1-559) | no binding | 
YTHDF3 (endogenous) (from UniProt Q7Z739 1-585) | binds | 
YTHDC2 (protein, UniProt Q9H6S0 1-1430) MSRPSSVSPRQPAPGGGGGGGPSPCGPGGGGRAKGLKDIRIDEEVKIAVNIALERFRYGDQREMEFPSSLTSTERAFIHRLSQSLGLVSKSKGKGANRYLTVKKKDGSETAHAMMTCNLTHNTKHAVRSLIQRFPVTNKERTELLPKTERGNVFAVEAENREMSKTSGRLNNGIPQIPVKRGESEFDSFRQSLPVFEKQEEIVKIIKENKVVLIVGETGSGKTTQIPQFLLDDCFKNGIPCRIFCTQPRRLAAIAVAERVAAERRERIGQTIGYQIRLESRVSPKTLLTFCTNGVLLRTLMAGDSTLSTVTHVIVDEVHERDRFSDFLLTKLRDLLQKHPTLKLILSSAALDVNLFIRYFGSCPVIYIQGRPFEVKEMFLEDILRTTGYTNKEMLKYKKEKQQEEKQQTTLTEWYSAQENSFKPESQRQRTVLNVTDEYDLLDDGGDAVFSQLTEKDVNCLEPWLIKEMDACLSDIWLHKDIDAFAQVFHLILTENVSVDYRHSETSATALMVAAGRGFASQVEQLISMGANVHSKASNGWMALDWAKHFGQTEIVDLLESYSATLEFGNLDESSLVQTNGSDLSAEDRELLKAYHHSFDDEKVDLDLIMHLLYNICHSCDAGAVLIFLPGYDEIVGLRDRILFDDKRFADSTHRYQVFMLHSNMQTSDQKKVLKNPPAGVRKIILSTNIAETSITVNDVVFVIDSGKVKEKSFDALNFVTMLKMVWISKASAIQRKGRAGRCRPGICFRLFSRLRFQNMLEFQTPELLRMPLQELCLHTKLLAPVNCPIADFLMKAPEPPPALIVRNAVQMLKTIDAMDTWEDLTELGYHLADLPVEPHLGKMVLCAVVLKCLDPILTIACTLAYRDPFVLPTQASQKRAAMLCRKRFTAGAFSDHMALLRAFQAWQKARSDGWERAFCEKNFLSQATMEIIIGMRTQLLGQLRASGFVRARGGGDIRDVNTNSENWAVVKAALVAGMYPNLVHVDRENLVLTGPKEKKVRFHPASVLSQPQYKKIPPANGQAAAIKALPTDWLIYDEMTRAHRIANIRCCSAVTPVTILVFCGPARLASNALQEPSSFRVDGIPNDSSDSEMEDKTTANLAALKLDEWLHFTLEPEAASLLLQLRQKWHSLFLRRMRAPSKPWSQVDEATIRAIIAVLSTEEQSAGLQQPSGIGQRPRPMSSEELPLASSWRSNNSRKSSADTEFSDECTTAERVLMKSPSPALHPPQKYKDRGILHPKRGTEDRSDQSSLKSTDSSSYPSPCASPSPPSSGKGSKSPSPRPNMPVRYFIMKSSNLRNLEISQQKGIWSTTPSNERKLNRAFWESSIVYLVFSVQGSGHFQGFSRMSSEIGREKSQDWGSAGLGGVFKVEWIRKESLPFQFAHHLLNPWNDNKKVQISRDGQELEPLVGEQLLQLWERLPLGEKNTTD |  | no binding
